Compound in assay [1]: ClCC(=O)N[C@@H]1CCCc2ccccc12
The experiment in a line: log2 mean competition ratio of IA-DTB cysteine labelling (DMSO/compound) (log2 ratio); higher = stronger cysteine engagement by compound. The note with it: treatment time: 4 h, cell line lysate: HEK293T. The method, then: (§1)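 IA-DTB competitive cysteine chemoproteomics in HEK293T RIPA lysate. Lysates were treated with compound 29 or 30 at 50 or 200 µM for 4 h, then IA-DTB (500 µM, 1 h), trypsin-digested, NeutrAvidin-enriched and analysed by diaPASEF. Competition ratio = intensity DMSO / intensity compound (n=4 treated, n=64 DMSO); binding: mean log2 CR ≥ 1 and p ≤ 0.05 plus QC filters. Target is the cysteine site.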

Chains of the proteins cited; added tags and fusions are not shown. Lines headed by an entry give the natural chain unless they say otherwise; changes in a name come on top. Residues count along the entry.
UniProt Q02487, 258-279: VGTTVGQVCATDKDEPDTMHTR
UniProt A8K855: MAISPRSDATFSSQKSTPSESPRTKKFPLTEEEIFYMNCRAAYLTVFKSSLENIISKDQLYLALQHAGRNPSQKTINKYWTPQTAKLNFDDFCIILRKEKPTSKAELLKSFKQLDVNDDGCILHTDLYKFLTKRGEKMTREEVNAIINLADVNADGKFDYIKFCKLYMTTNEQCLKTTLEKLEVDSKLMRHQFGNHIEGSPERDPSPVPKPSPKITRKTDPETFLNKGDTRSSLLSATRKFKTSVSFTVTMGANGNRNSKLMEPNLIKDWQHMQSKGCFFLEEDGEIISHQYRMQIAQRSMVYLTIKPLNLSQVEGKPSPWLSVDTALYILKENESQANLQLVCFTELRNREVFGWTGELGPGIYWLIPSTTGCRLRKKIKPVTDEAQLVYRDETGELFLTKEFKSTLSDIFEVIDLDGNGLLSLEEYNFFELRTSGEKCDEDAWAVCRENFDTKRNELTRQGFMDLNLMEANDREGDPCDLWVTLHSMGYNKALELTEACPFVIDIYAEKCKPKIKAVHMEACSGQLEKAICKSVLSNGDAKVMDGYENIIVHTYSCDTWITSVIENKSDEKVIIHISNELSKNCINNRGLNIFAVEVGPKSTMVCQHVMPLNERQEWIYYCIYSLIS
UniProt Q96EV8: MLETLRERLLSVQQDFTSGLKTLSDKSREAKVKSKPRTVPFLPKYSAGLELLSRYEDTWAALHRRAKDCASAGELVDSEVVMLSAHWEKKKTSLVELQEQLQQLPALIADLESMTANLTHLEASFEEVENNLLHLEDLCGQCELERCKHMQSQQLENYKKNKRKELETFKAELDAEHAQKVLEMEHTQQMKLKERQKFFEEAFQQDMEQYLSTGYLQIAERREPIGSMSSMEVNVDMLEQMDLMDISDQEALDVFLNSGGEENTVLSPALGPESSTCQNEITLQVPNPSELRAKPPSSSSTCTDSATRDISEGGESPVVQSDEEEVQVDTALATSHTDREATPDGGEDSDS
UniProt P15924: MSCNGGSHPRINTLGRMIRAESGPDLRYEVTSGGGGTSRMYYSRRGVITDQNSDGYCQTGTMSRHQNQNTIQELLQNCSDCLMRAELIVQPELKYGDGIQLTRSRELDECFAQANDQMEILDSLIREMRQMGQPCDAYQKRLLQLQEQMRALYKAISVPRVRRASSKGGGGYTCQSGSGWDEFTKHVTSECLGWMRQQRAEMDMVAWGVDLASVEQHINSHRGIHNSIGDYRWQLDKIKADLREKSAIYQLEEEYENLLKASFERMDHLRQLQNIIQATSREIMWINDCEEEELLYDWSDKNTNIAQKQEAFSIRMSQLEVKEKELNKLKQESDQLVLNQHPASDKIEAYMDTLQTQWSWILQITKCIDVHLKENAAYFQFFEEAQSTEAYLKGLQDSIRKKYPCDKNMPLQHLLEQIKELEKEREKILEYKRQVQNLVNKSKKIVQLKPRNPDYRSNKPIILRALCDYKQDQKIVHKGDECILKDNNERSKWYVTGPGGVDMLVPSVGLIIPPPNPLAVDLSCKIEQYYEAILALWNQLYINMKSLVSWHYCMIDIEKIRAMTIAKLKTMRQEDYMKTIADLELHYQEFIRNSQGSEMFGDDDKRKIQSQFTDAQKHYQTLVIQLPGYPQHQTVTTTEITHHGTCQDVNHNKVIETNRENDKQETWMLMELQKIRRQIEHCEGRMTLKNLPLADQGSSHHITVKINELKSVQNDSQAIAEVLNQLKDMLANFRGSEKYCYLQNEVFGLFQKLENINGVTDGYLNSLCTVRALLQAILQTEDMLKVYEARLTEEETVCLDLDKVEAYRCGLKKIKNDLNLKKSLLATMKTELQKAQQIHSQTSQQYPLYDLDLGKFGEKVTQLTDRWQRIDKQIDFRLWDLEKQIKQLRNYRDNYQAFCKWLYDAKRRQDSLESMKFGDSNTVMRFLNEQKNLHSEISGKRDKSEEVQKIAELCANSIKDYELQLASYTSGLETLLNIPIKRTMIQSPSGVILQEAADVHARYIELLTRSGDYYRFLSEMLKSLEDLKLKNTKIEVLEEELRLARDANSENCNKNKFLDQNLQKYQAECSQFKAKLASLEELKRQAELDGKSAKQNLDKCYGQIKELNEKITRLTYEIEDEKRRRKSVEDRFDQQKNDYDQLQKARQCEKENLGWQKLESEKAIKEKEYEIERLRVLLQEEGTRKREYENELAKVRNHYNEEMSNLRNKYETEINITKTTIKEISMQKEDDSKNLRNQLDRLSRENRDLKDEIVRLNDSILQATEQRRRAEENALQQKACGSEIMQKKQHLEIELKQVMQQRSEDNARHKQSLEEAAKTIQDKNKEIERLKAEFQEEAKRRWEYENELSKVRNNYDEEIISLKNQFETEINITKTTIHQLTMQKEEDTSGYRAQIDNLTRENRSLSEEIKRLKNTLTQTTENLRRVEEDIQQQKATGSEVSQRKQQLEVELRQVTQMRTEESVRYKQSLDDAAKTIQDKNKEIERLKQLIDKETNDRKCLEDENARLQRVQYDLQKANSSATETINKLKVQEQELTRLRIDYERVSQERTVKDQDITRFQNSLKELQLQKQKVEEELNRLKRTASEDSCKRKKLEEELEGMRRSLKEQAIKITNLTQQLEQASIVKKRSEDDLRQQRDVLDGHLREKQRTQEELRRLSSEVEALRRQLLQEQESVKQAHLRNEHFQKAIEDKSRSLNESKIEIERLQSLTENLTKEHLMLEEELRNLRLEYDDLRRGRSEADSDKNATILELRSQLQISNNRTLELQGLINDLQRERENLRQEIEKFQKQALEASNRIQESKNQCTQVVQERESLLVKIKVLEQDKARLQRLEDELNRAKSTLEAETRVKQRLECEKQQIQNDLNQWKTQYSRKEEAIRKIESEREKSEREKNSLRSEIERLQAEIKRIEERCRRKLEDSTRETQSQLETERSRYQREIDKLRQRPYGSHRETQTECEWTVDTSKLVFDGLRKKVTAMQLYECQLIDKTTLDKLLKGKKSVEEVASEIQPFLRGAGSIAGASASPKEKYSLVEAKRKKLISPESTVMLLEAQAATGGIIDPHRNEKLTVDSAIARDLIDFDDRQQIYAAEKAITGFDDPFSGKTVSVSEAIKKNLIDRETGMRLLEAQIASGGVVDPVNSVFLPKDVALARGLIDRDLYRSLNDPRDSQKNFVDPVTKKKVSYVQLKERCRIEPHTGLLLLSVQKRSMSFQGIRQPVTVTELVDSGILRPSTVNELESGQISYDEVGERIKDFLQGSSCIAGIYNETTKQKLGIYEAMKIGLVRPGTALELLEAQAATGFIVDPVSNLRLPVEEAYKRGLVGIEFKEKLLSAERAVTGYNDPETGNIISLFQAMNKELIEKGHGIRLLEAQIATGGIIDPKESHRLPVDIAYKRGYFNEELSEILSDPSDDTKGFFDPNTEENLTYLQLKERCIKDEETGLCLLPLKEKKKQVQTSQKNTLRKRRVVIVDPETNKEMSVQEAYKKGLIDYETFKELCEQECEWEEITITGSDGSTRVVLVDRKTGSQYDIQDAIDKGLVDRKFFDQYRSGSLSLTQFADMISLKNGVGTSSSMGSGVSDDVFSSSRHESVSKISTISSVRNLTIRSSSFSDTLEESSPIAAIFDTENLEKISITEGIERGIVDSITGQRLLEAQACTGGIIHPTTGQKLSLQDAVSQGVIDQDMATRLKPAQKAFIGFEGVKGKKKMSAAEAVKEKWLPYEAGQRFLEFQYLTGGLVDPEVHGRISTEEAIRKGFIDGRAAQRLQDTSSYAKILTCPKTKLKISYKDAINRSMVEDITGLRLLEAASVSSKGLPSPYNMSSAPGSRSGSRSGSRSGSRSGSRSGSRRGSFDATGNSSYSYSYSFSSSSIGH
UniProt Q04637, whole entry, looked up: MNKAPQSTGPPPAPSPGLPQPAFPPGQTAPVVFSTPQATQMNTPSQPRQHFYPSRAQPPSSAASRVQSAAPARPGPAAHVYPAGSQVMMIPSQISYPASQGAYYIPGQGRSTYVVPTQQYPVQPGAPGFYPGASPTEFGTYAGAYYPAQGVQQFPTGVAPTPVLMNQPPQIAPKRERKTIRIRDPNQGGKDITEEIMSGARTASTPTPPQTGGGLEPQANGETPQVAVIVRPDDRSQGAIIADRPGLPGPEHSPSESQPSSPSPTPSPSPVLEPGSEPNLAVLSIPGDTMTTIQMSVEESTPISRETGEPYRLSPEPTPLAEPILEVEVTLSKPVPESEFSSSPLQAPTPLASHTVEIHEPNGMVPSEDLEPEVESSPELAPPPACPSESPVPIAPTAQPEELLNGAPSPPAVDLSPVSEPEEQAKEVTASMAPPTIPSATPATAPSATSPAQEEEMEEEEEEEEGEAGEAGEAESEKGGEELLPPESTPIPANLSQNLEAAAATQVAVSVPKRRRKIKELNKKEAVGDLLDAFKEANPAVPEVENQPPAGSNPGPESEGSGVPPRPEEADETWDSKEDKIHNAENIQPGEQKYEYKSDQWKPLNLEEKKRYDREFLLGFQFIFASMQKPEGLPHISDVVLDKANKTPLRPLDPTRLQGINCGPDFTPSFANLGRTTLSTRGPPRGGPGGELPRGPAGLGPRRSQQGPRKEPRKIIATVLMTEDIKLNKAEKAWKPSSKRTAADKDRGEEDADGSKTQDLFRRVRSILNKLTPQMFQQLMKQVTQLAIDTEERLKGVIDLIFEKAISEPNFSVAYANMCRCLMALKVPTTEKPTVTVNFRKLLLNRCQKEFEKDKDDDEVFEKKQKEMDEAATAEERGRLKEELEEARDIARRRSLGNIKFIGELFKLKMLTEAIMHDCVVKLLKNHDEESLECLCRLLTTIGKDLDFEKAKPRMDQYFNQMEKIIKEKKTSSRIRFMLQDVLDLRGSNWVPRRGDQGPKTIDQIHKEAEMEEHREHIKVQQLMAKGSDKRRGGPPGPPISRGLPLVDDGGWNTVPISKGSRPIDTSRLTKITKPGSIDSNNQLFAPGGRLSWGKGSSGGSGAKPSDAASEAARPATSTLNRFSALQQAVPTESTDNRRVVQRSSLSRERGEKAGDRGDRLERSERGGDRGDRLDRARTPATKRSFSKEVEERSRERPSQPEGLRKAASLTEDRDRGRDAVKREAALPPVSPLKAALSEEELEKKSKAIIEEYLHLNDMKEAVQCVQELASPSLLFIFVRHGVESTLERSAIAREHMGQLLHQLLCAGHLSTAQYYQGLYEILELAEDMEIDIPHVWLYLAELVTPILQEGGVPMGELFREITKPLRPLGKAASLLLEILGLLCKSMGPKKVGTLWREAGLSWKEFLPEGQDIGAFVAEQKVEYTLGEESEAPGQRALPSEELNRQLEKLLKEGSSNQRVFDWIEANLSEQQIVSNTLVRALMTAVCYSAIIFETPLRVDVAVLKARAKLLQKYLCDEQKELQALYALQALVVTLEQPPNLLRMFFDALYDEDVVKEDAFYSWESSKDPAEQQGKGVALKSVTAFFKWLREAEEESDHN

Compound in assay [2]: ClCC(=O)N[C@H]1CCCc2ccccc12
Described as above. The note with it: treatment time: 4 h, cell line lysate: HEK293T. The method, then: as §1

Some of the results follow. The data scatter; read single values as rough.

With DYRK1A C312 (UniProt Q13627), the “log2 mean competition ratio” value was -0.00488 in assay [1] (50 µM), 0.337 in assay [1] (200 µM), 0.125 in assay [2] (50 µM) and 0.396 in assay [2] (200 µM).

In the case of EED C182, the “log2 mean competition ratio” value in assay [1] (50 µM) was 0.501; in assay [1] (200 µM), 0.127; in assay [2] (50 µM), 0.102; in assay [2] (200 µM), 0.184.

As to DSC2 C266 (UniProt Q02487), the “log2 mean competition ratio” value in assay [1] (50 µM) was -0.00956; in assay [1] (200 µM), 0.622; in assay [2] (50 µM), -0.0256; in assay [2] (200 µM) it was -0.0699.

In the case of EFCAB7 C174 (UniProt A8K855), the “log2 mean competition ratio” value in assay [1] (50 µM) is 0.175; in assay [1] (200 µM) it was 0.377; in assay [2] (50 µM), -0.346; in assay [2] (200 µM), 0.1.

As to DTNBP1 C302 (UniProt Q96EV8), the “log2 mean competition ratio” value in assay [1] (50 µM) came out at 0.118; in assay [1] (200 µM) it was 0.147; in assay [2] (50 µM), 0.0908; in assay [2] (200 µM), 0.162.

As for EIF2B5 C335, the “log2 mean competition ratio” value in assay [1] (50 µM) is 0.115; in assay [1] (200 µM), -0.0747; in assay [2] (50 µM), 0.526; in assay [2] (200 µM), -0.00378.

Regarding EDC4 C1054 (UniProt Q6P2E9), the “log2 mean competition ratio” value was 0.0752 in assay [1] (50 µM), 0.253 in assay [1] (200 µM), -0.0167 in assay [2] (50 µM) and 0.356 in assay [2] (200 µM).

As for DYNC1H1 C3940 (UniProt Q14204), the “log2 mean competition ratio” value was 0.0469 in assay [1] (50 µM), -0.253 in assay [1] (200 µM), -0.198 in assay [2] (50 µM) and -0.275 in assay [2] (200 µM).

For the target EIF3G C169, the “log2 mean competition ratio” value in assay [1] (50 µM) is 0.0889; in assay [1] (200 µM), 0.208; in assay [2] (50 µM), -0.268; in assay [2] (200 µM) it was 0.0786.

DUT C222: the “log2 mean competition ratio” value in assay [1] (50 µM) is 0.00396; in assay [1] (200 µM) it was -0.112; in assay [2] (50 µM), 0.298; in assay [2] (200 µM), -0.102.

DSP C3 (UniProt P15924): the “log2 mean competition ratio” value in assay [1] (50 µM) is 0.0833; in assay [1] (200 µM) it was 0.205; in assay [2] (50 µM), -0.0647; in assay [2] (200 µM) it was 0.238.

Take DST C5056 (UniProt Q03001): the “log2 mean competition ratio” value is 0.403 in assay [1] (50 µM), -0.0595 in assay [1] (200 µM), 0.061 in assay [2] (50 µM) and -0.0281 in assay [2] (200 µM).

As for EIF4G1 C1516 (UniProt Q04637), the “log2 mean competition ratio” value in assay [1] (50 µM) was -0.181; in assay [1] (200 µM), -0.333; in assay [2] (50 µM) it was 0.0849; in assay [2] (200 µM), -0.349.

On to DYNC1H1 C1999 (UniProt Q14204), for which the “log2 mean competition ratio” value in assay [1] (50 µM) is 0.108; in assay [1] (200 µM), -0.0344; in assay [2] (50 µM), 0.085; in assay [2] (200 µM), 0.0071.

The values are drawn from the supplement of paper PMC11732987, “Enantioselective OTUD7B fragment discovery through chemoproteomics screening and high-throughput optimisation” (Communications Chemistry, 2025).
